From the supplement of paper PMC9226226
Values joined by “and” are separate entries in the source; they are usually repeats but may differ in a detail not shown here. Equal entries are not always repeated. ± gives the standard deviation of the averaged measurements. The list shows a part of the results. Several reference drugs read as weak here; read low effects with care.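 The cells are human mesenchymal stem cells that lack the Werner syndrome gene and age prematurely. Growth was tracked by automated live-cell imaging in three biological repeats, and the twenty drugs that most raised growth over vehicle were taken forward, with no fixed cutoff stated.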

Tested on: Werner syndrome hMSCs (WRN-/-)
Assay: relative cell density (fold change vs vehicle control); higher = more proliferation (geroprotective)
Conditions: concentration (umol/L): 1, 6 days

Structure (SMILES)	relative cell density (vehicle: DMSO)	relative cell density (vehicle: Water)
NC(=O)OCC(COC(N)=O)c1ccccc1	0.862	
COc1ccc(C[C@H](N)C(=O)N[C@H]2[C@@H](O)[C@H](n3cnc4c(N(C)C)ncnc43)O[C@@H]2CO)cc1	1.22	
NCCCC(O)(P(=O)(O)O)P(=O)(O)O		0.954
CNC[C@H](O)[C@@H](O)[C@H](O)[C@H](O)CO	1.29	
COC(=O)N[C@H](C(=O)N[C@@H](Cc1ccccc1)[C@@H](O)CN(Cc1ccc(-c2ccccn2)cc1)NC(=O)[C@@H](NC(=O)OC)C(C)(C)C)C(C)(C)C	1.38 and 1.4	
N.N.O=C([O-])C[O-].[Pt+2]		0.541
Cn1cc(C(=O)[C@@H]2CCc3[nH]cnc3C2)c2ccccc21	0.94	
C[C@H](Cn1cnc2c(N)ncnc21)OCP(=O)(O)O	1.02	
CCCCNc1cc(C(=O)O)cc(S(N)(=O)=O)c1Oc1ccccc1	0.943	
O=c1ccn([C@@H]2O[C@H](CO)[C@@H](O)[C@H]2O)c(=O)[nH]1	1.14	
CC(C)(C)c1ccc(C(=O)CCCN2CCC(OC(c3ccccc3)c3ccccc3)CC2)cc1		0.468
CC(C)n1c(/C=C/C(O)CC(O)CC(=O)O)c(-c2ccc(F)cc2)c2ccccc21 (stereo not given)	0.421	
CC1(C)S[C@@H]2[C@H](NC(=O)C(C(=O)O)c3ccccc3)C(=O)N2[C@H]1C(=O)O (stereo not given in full)	0.991	
CC(=O)[C@@]1(O)CC[C@H]2[C@@H]3C[C@H](C)C4=CC(=O)CC[C@]4(C)[C@H]3CC[C@@]21C	0.98	
Cc1ccccc1OCC(O)CO (stereo not given)	1.31	
O=C1CN(/N=C/c2ccc([N+](=O)[O-])o2)C(=O)N1	1.09	
CC(C)(C)C(=O)C(Oc1ccc(Cl)cc1)n1ccnc1 (stereo not given)	0.988	
CN[C@@H]1[C@@H](O)[C@@H](O[C@@H]2[C@@H](O)[C@H](O[C@H]3OC(CN)=CC[C@H]3N)[C@@H](N)C[C@H]2N)OC[C@]1(C)O		0.587
Cc1cc(NS(=O)(=O)c2ccc(N)cc2)no1	1.35 and 1.42	
CC1(C)S[C@@H]2[C@H](NC(=O)[C@H](C(=O)O)c3ccsc3)C(=O)N2[C@H]1C(=O)O	0.928	
CN[C@H]1C(=O)N[C@@H]2Cc3ccc(cc3)Oc3cc4cc(c3O[C@@H]3O[C@H](C(=O)O)[C@@H](O)[C@H](O)[C@H]3NC(=O)CCCCCCCCC(C)C)Oc3ccc(cc3Cl)[C@@H](O)[C@@H]3NC(=O)[C@H](NC(=O)[C@@H]4NC(=O)[C@@H](NC2=O)c2cc(cc(O)c2Cl)Oc2cc1ccc2O)c1ccc(O)c(c1)-c1c(O[C@H]2O[C@H](CO)[C@@H](O)[C@H](O)[C@@H]2O)cc(O)cc1[C@@H](C(=O)NCCCN(C)C)NC3=O	1.33	
CCOC(=O)n1ccn(C)c1=S	0.889	
CC1(O)CCC(C(C)(C)O)CC1 (stereo not given)	1.28	
CC(C)OC(=O)CCC/C=C\C[C@@H]1[C@@H](/C=C/[C@@H](O)COc2cccc(C(F)(F)F)c2)[C@H](O)C[C@@H]1O	1.04	
O=C1CN(/N=C/c2ccc(-c3ccc([N+](=O)[O-])cc3)o2)C(=O)N1	0.774	
CC1(C)O[C@@H]2C[C@H]3[C@@H]4CCC5=CC(=O)C=C[C@]5(C)[C@H]4[C@@H](O)C[C@]3(C)[C@]2(C(=O)CO)O1	1.22	
O=C(O)c1ccc2c(c1)nc(Nc1cccc(Cl)c1)c1ccncc12	1.01	

Structure (SMILES)	relative cell density (vehicle: DMSO)	relative cell density (vehicle: Water)
CCNC(=O)CCC/C=C\C[C@@H]1[C@@H](/C=C/[C@@H](O)CCc2ccccc2)[C@H](O)C[C@@H]1O	1	
COC(=O)C1=C(C)NC(C)=C(C(=O)OC2CCCN(Cc3ccccc3)C2)C1c1cccc([N+](=O)[O-])c1 (stereo not given)	1.24	
NC[C@H]1O[C@H](O[C@H]2[C@H](O)[C@@H](O[C@H]3O[C@H](CO)[C@@H](O)[C@H](N)[C@H]3O)[C@H](N)C[C@@H]2N)[C@H](O)[C@@H](O)[C@@H]1O		0.641
C[C@H](Oc1ccc(S(C)(=O)=O)cc1C(=O)N1CCN(c2ncc(C(F)(F)F)cc2F)CC1)C(F)(F)F	0.834	
O=C(CCCCCCC(=O)Nc1ccccc1)NO	0.325	
Nc1c2c(nc3ccccc13)CCCC2	1.04	
CCCCC(CC)COC(=O)C(C#N)=C(c1ccccc1)c1ccccc1 (stereo not given)	0.969	
O=c1sn(-c2cccc3ccccc23)c(=O)n1Cc1ccccc1	1.01	
COc1cc2/c(=N/c3ccc(Br)cc3F)nc[nH]c2cc1OCC1CCN(C)CC1		0.185
CCN(CC)C(=S)SSC(=S)N(CC)CC	0.211	
CCOc1cc(CC(=O)N[C@@H](CC(C)C)c2ccccc2N2CCCCC2)ccc1C(=O)O	1.29	
CCOC(=O)C1=C(C)NC(C)=C(C(=O)OCC)C1c1ccccc1/C=C/C(=O)OC(C)(C)C	1.35	
CCc1ccc(Cc2ccc3c(c2)[C@]2(OC3)O[C@H](CO)[C@@H](O)[C@H](O)[C@H]2O)cc1	0.896	
C#C[C@]1(O)CC[C@H]2[C@@H]3CCc4cc(O)ccc4[C@H]3CC[C@@]21C	0.998	
CN[C@@H]1[C@@H](O)[C@@H](O[C@@H]2[C@@H](O)[C@H](O[C@H]3O[C@H](CN)[C@@H](O)[C@H](O)[C@H]3O)[C@@H](N)C[C@H]2NC(=O)[C@@H](O)CN)OC[C@]1(C)O		1.46
CS(=O)(=O)N1CCN(Cc2cc3nc(-c4cccc5[nH]ncc45)nc(N4CCOCC4)c3s2)CC1	0.631	
CC(C)NCC(O)c1ccc(O)c(O)c1 (stereo not given)	1.14	
COc1ccc2[nH]c([S@@+]([O-])Cc3ncc(C)c(OC)c3C)nc2c1	0.974 and 1.2	
Nc1nc2c(ncn2COCCO)c(=O)[nH]1	1	
COc1ccc(C(=O)CC(=O)c2ccc(C(C)(C)C)cc2)cc1	1.21	
COc1ncnc(NS(=O)(=O)c2ccc(N)cc2)c1OC	1.18	
CC(=O)OCC(=O)[C@@]1(O)[C@H](C)C[C@H]2[C@@H]3CCC4=CC(=O)C=C[C@]4(C)[C@@]3(F)[C@@H](O)C[C@@]21C	1.09	
COc1ccc(C(=O)c2ccccc2)c(O)c1	1.18	
COc1c(N2C[C@@H]3CCCN[C@@H]3C2)c(F)cc2c(=O)c(C(=O)O)cn(C3CC3)c12	1.34	
COc1cc(C(C)=O)ccc1OCCCN1CCC(c2noc3cc(F)ccc23)CC1	1.45	
CCCC1O[C@@H]2C[C@H]3[C@@H]4CCC5=CC(=O)C=C[C@]5(C)[C@H]4[C@@H](O)C[C@]3(C)[C@]2(C(=O)CO)O1 (stereo not given in full)	1.09	
CC(C(=O)O)c1cccc(C(=O)c2ccccc2)c1 (stereo not given)	0.933	

Whole records, looked up by structure:
COc1c(N2C[C@@H]3CCCN[C@@H]3C2)c(F)cc2c(=O)c(C(=O)O)cn(C3CC3)c12 in the list: relative cell density (vehicle: DMSO): 1.34
COc1ccc(C(=O)CC(=O)c2ccc(C(C)(C)C)cc2)cc1 in the list: relative cell density (vehicle: DMSO): 1.21
CS(=O)(=O)N1CCN(Cc2cc3nc(-c4cccc5[nH]ncc45)nc(N4CCOCC4)c3s2)CC1 in the list: relative cell density (vehicle: DMSO): 0.631
CC(C)NCC(O)c1ccc(O)c(O)c1 (stereo not given) in the list: relative cell density (vehicle: DMSO): 1.14

(listing goes on)

Structure (SMILES)	relative cell density (vehicle: DMSO)	relative cell density (vehicle: Water)
COC(=O)N[C@H](C(=O)N1CCC[C@H]1c1ncc(-c2ccc(-c3ccc(-c4cnc([C@@H]5CCCN5C(=O)[C@@H](NC(=O)OC)C(C)C)[nH]4)cc3)cc2)[nH]1)C(C)C	1.07	
Cc1cc(C)c2c(c1)[C@@H](N(Cc1cc(C(F)(F)F)cc(C(F)(F)F)c1)c1nnn(C)n1)CCCN2C[C@H]1CC[C@H](C(=O)O)CC1	1.47	
O=NN(CCCl)C(=O)NCCCl	0.975	
CCOC(=O)c1ncn2c1CN(C)C(=O)c1cc(F)ccc1-2	1.08	
C[C@@H]1CN(c2c(F)c(N)c3c(=O)c(C(=O)O)cn(C4CC4)c3c2F)C[C@H](C)N1	1.19	
CCn1cc(C(=O)O)c(=O)c2cc(F)c(N3CCN(C)CC3)cc21	1.31 and 1.19	
OCc1ccccc1	1.07	
CNC(=C[N+](=O)[O-])NCCSCc1csc(CN(C)C)n1	0.896	
CC(C)CN(C[C@@H](O)[C@H](Cc1ccccc1)NC(=O)O[C@H]1CCOC1)S(=O)(=O)c1ccc(N)cc1	1.06	
CCC1=C[C@@H]2CN(C1)Cc1c([nH]c3ccccc13)[C@@](C(=O)OC)(c1cc3c(cc1OC)N(C)[C@H]1[C@@](O)(C(=O)OC)[C@H](OC(C)=O)[C@]4(CC)C=CCN5CC[C@]31[C@@H]54)C2	1.04	
CS(=O)(=O)Nc1ccc([N+](=O)[O-])cc1Oc1ccccc1	0.816	
CCn1cc(C(=O)O)c(=O)c2cc(F)c(N3CCNC(C)C3)c(F)c21 (stereo not given)		1.33
CCOC(=O)CCC(=O)O[C@H]1[C@H](O[C@@H]2[C@@H](C)[C@H](O[C@H]3C[C@@](C)(OC)[C@@H](O)[C@H](C)O3)[C@@H](C)C(=O)O[C@H](CC)[C@@](C)(O)[C@H](O)[C@@H](C)C(=O)[C@H](C)C[C@@]2(C)O)O[C@H](C)C[C@@H]1N(C)C	0.991	
C[C@]12C=CC(=O)C=C1CC[C@@H]1[C@@H]2C(=O)C[C@@]2(C)[C@H]1CC[C@]2(O)C(=O)CO	1.04	
CC1(C)[C@@H](O[C@H]2O[C@H](C(=O)O)[C@@H](O)[C@H](O)[C@H]2O[C@@H]2O[C@H](C(=O)O)[C@@H](O)[C@H](O)[C@H]2O)CC[C@]2(C)[C@H]3C(=O)C=C4[C@@H]5C[C@@](C)(C(=O)O)CC[C@]5(C)CC[C@@]4(C)[C@]3(C)CC[C@@H]12	0.899	
CC(C)(O/N=C(\C(=O)N[C@@H]1C(=O)N2C(C(=O)[O-])=C(C[n+]3ccccc3)CS[C@H]12)c1csc(N)n1)C(=O)O		0.996 ± 0.047
CCc1c2c(nc3ccc(OC(=O)N4CCC(N5CCCCC5)CC4)cc13)-c1cc3c(c(=O)n1C2)COC(=O)[C@]3(O)CC	0.611	
CNCCC=C1c2ccccc2CCc2ccccc21	1.13	
C[C@H]1[C@H](NC(=O)/C(=N\OC(C)(C)C(=O)O)c2csc(N)n2)C(=O)N1S(=O)(=O)O	1.53	
CCc1cc(C(N)=S)ccn1	0.942	
CC(=O)Nc1c(I)c(NC(C)=O)c(I)c(C(=O)O)c1I	0.917	
NC(=O)c1ncn([C@@H]2O[C@H](CO)[C@@H](O)[C@H]2O)c1O		0.72
Cc1cn([C@@H]2C[C@@H](O)[C@H](CO)O2)c(=O)[nH]c1=O	1.08	
CCOc1cc2ncc(C#N)c(Nc3ccc(OCc4ccccn4)c(Cl)c3)c2cc1NC(=O)/C=C/CN(C)C		0.259
O=C(N/N=C/c1ccc([N+](=O)[O-])o1)c1ccc(O)cc1	1.11	
CN(C)CCCOc1nn(Cc2ccccc2)c2ccccc12	1.2	
